Consider two substances from PMC10082843.

Amino acid sequences for entries named in this document (tags omitted). A change or cut given only in a name is not applied to a line headed by its entry.
UniProt P07305: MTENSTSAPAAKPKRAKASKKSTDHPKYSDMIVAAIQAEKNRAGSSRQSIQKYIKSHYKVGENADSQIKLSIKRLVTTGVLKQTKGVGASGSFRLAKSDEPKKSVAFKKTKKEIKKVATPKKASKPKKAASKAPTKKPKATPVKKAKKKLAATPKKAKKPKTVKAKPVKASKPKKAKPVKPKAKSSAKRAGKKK
UniProt P10922: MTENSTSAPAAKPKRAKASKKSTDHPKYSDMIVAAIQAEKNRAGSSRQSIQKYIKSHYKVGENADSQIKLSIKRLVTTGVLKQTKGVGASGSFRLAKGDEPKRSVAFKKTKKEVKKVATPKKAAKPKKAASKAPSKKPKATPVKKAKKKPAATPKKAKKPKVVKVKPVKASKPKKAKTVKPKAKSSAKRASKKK
UniProt P25445: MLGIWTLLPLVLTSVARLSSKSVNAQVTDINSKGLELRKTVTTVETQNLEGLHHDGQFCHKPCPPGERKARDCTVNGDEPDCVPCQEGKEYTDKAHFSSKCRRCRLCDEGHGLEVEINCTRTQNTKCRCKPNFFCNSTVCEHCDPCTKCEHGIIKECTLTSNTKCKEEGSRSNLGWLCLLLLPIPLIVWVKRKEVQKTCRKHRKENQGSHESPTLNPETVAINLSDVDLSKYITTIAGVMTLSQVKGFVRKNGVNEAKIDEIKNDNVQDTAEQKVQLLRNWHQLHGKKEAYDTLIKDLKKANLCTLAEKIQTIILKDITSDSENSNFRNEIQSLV
UniProt P25446: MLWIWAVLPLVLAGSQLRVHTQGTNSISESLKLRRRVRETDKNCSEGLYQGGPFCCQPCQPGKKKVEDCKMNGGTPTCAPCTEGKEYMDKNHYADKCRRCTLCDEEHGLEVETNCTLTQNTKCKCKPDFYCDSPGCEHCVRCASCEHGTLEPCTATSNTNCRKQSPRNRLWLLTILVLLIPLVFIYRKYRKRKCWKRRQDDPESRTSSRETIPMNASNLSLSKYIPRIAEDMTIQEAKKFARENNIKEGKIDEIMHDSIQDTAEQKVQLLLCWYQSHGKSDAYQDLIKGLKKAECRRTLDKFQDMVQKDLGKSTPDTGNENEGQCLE

For experiment [1], the target named is histone H1.0, human (human (endogenous in MDA-MB-231)) (UniProt P07305). Description: co-IP; cells incubated 4 h with the formulations (FKPN and controls), with or without laser (0.3 W/cm^2, 660 nm, 3 min), cultured 4 h more; lysed in RIPA buffer with phosphatase and protease inhibitors; lysates with Flag-conjugated agarose beads at 4 °C for 12 h; eluted with non-reducing sample buffer; western blot. On the technique in general: In western blotting, separated proteins are transferred to a membrane and probed.

Experiment [2] concerns the target histone H1.0, mouse (mouse (endogenous in 4T1)) (UniProt P10922). The description is as above.

No constants are given. Whether binding was seen depends on the method and setting. Binding seen in cells or lysates may run through a third protein. A result given as binding can be weak or reduced; the word gives no strength.

With “CD95 death domain (DD), human (from UniProt P25445) (domain or fragment)”, in experiment [1], the binding entry is “binds”.
Consider “CD95 death domain (DD), mouse (from UniProt P25446) (domain or fragment)”, for which the binding entry in experiment [2] is on record as “binds”.
